Results are given in words; binding and its absence hold for the method and conditions named. Sequences can lack the tags named with a protein.
Target: purified His-tagged recombinant LGI1 (UniProt Q8K4Y5)
Assay: SPR

binding: no binding
B1: purified His-tagged recombinant LGI1 (protein, UniProt Q8K4Y5 35-557)
chain: KKPAKPKCPAVCTCSKDNALCENARSIPRTVPPDVISLSFVRSGFTEISEGSFLFTPSLQLLLFTSNSFDVISDDAFIGLPHLEYLFIENNNIKSISRHTFRGLKSLIHLSLANNNLQTLPKDIFKGLDSLTNVDLRGNSFNCDCKLKWLVEWLGHTNATVEDIYCEGPPEYKKRKINSLSPKDFDCIITEFAKSQDLPYQSLSIDTFSYLNDEYVVIAQPFTGKCIFLEWDHVEKTFRNYDNITGTSTVVCKPIVIDTQLYVIVAQLFGGSHIYKRDGFANKFIKIQDIEVLKIRKPNDIETFKIEDNWYFVVADSSKAGFTTIYKWNGNGFYSHQSLHAWYRDTDVEYLEIARPPLTLRTPHLILSSSSQRPVIYQWSKATQLFINQTDIPNMEDVYAVKHFSVKGDVYICLTRFIGDSKVMKWGGSSFQDIQRMPSRGSMVFQPLQINNYQYAILGSDYSFTQVYNWDAEKAKFVKFQELNVQAPRSFTHVSINKRNFLFASSFKGNTQIYKHVIVDLSA

Reference: doi:10.1101/2022.03.29.486232
